Test results: the supplement of paper PMC10849652
Some of the results follow.

Chains of the proteins cited; added tags and fusions are not shown. Lines headed by an entry give the natural chain unless they say otherwise; changes in a name come on top.
UniProt P23528, whole entry, looked up: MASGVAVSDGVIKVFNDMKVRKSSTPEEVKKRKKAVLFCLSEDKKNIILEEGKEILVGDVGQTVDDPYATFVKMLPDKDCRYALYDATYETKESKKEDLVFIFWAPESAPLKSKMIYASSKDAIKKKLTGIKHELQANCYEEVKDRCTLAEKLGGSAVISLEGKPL
UniProt P17676: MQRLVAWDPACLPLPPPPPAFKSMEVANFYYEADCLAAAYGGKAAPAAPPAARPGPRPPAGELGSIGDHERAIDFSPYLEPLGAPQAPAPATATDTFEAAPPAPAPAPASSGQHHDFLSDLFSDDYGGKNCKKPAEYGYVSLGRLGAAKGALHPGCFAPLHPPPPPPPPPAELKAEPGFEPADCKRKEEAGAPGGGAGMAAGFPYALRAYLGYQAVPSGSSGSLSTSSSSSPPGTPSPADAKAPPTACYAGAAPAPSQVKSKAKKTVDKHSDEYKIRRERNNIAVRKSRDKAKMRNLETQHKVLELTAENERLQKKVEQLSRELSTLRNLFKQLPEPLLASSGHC
UniProt Q96FF9: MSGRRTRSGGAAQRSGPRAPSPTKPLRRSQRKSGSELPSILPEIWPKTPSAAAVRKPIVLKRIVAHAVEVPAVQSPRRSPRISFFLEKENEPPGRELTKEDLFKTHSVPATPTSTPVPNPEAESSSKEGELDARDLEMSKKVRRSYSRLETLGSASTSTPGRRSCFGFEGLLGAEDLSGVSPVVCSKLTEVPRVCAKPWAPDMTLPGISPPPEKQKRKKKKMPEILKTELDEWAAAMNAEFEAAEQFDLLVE
UniProt Q9Y5S2: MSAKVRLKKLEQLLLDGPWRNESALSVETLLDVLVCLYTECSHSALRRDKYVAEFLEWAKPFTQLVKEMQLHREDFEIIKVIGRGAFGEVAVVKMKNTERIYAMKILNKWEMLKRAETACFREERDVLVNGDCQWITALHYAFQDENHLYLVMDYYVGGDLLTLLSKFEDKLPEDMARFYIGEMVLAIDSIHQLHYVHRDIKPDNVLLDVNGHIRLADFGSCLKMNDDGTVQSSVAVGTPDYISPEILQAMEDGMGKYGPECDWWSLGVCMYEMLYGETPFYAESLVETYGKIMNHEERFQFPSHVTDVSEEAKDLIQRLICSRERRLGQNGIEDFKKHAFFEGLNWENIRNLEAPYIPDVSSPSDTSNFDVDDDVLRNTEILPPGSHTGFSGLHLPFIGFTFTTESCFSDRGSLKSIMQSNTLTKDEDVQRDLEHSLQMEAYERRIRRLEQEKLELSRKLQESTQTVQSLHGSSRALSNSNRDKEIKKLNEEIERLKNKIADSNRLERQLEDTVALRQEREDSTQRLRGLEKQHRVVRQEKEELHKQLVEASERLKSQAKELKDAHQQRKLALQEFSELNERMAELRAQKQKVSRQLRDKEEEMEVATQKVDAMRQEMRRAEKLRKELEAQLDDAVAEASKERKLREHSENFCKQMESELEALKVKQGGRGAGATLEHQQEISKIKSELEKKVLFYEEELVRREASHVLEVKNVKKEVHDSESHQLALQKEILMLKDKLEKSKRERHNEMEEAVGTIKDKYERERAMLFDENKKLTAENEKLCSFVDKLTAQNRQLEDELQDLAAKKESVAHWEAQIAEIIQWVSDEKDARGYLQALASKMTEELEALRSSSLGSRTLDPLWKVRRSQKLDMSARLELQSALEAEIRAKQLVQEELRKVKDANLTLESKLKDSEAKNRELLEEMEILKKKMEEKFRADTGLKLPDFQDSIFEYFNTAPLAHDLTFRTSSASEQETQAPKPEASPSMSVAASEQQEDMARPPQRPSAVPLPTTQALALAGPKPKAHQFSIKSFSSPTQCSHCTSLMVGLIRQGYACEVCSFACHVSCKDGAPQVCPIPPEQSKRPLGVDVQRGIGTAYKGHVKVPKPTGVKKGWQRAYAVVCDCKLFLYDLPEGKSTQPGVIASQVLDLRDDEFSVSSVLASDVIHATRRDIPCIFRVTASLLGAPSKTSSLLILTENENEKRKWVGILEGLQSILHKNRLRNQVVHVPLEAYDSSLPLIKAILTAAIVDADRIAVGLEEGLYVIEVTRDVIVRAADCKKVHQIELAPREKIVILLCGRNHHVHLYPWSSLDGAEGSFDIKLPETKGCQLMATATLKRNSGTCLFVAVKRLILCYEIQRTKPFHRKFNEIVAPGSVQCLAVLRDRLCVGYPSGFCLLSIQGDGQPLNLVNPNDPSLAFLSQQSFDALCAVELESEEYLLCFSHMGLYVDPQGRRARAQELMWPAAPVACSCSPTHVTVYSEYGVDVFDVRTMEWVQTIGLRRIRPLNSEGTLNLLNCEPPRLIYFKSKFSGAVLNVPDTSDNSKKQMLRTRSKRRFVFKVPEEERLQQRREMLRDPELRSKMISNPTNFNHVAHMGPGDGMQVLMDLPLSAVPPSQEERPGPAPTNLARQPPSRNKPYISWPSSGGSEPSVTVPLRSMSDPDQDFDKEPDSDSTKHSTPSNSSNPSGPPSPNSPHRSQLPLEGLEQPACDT
UniProt O60508: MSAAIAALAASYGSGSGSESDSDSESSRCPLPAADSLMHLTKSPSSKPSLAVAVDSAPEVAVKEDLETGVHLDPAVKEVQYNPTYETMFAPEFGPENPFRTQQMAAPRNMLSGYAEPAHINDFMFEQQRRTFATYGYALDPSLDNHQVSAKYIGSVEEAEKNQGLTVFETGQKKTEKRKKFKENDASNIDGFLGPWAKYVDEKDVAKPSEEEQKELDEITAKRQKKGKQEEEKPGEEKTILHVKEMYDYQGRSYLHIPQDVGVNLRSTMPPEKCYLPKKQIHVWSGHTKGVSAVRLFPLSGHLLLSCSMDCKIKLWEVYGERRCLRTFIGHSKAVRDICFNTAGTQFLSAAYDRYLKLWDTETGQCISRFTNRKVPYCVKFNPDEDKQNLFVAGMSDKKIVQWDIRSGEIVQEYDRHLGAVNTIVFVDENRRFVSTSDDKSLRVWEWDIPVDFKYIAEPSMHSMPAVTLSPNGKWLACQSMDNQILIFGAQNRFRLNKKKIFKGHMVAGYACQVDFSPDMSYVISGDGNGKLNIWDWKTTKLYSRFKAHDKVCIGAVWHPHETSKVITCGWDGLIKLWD
UniProt Q9BYV8: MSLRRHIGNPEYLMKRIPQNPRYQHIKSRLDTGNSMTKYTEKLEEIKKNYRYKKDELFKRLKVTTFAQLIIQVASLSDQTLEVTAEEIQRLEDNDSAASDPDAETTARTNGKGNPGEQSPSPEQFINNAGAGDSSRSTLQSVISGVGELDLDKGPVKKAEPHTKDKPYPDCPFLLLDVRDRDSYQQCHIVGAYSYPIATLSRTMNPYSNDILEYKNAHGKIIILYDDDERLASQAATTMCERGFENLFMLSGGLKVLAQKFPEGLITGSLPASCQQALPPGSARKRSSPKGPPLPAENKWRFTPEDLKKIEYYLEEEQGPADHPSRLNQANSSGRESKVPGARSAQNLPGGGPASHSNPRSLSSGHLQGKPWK
UniProt Q6IPU0: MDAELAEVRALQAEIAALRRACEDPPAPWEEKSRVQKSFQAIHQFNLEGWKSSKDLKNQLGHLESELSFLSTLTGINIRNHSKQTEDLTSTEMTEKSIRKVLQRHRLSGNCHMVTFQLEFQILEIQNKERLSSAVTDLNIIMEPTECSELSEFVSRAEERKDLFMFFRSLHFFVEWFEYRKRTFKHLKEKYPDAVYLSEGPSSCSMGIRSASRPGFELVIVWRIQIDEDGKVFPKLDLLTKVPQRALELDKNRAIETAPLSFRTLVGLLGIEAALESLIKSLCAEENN
UniProt O75956: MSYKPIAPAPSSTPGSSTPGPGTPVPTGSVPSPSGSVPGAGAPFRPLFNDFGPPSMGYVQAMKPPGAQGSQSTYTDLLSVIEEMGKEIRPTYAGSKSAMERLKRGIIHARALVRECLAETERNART
UniProt P11802: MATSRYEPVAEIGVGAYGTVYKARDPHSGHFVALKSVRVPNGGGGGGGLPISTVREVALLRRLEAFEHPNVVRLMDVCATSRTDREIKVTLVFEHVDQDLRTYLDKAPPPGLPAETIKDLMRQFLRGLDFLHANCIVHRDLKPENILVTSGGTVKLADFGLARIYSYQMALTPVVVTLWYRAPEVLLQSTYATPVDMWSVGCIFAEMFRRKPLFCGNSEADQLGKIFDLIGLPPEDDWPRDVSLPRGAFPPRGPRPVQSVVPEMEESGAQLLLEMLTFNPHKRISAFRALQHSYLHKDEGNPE
UniProt Q9HC77: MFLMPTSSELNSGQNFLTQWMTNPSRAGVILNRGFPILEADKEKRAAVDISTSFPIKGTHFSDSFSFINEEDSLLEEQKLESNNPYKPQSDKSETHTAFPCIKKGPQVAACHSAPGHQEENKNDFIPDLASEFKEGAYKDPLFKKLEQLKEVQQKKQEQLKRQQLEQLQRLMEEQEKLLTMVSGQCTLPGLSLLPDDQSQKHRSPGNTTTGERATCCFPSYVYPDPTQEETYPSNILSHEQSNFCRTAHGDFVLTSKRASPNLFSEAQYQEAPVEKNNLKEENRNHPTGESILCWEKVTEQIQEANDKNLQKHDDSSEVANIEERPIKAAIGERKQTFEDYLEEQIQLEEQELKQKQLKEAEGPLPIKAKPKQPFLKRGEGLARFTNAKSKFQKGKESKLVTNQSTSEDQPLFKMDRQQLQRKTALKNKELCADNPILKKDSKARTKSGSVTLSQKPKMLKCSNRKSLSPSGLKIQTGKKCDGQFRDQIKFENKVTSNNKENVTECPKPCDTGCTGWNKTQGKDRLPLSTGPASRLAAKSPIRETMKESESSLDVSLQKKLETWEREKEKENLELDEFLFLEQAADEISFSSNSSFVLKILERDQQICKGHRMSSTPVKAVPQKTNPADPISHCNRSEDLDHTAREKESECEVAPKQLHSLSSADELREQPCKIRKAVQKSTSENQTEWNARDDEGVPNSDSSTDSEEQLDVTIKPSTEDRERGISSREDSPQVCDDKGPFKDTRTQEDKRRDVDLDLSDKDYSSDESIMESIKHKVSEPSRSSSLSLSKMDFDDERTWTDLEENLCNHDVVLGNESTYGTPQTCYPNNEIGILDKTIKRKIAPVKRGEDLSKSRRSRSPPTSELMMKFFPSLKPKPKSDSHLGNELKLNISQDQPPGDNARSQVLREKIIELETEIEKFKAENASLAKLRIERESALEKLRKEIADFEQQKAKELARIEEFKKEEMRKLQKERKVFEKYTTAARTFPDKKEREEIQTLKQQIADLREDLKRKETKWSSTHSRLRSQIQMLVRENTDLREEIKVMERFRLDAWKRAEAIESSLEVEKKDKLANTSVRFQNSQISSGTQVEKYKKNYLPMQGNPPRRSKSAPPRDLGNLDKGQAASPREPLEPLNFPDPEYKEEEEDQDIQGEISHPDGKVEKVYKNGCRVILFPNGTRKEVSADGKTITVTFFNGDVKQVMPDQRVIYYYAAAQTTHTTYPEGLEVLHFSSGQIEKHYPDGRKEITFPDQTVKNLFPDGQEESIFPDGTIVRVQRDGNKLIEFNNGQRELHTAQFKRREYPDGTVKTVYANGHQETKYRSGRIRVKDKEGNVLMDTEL
UniProt Q9Y592: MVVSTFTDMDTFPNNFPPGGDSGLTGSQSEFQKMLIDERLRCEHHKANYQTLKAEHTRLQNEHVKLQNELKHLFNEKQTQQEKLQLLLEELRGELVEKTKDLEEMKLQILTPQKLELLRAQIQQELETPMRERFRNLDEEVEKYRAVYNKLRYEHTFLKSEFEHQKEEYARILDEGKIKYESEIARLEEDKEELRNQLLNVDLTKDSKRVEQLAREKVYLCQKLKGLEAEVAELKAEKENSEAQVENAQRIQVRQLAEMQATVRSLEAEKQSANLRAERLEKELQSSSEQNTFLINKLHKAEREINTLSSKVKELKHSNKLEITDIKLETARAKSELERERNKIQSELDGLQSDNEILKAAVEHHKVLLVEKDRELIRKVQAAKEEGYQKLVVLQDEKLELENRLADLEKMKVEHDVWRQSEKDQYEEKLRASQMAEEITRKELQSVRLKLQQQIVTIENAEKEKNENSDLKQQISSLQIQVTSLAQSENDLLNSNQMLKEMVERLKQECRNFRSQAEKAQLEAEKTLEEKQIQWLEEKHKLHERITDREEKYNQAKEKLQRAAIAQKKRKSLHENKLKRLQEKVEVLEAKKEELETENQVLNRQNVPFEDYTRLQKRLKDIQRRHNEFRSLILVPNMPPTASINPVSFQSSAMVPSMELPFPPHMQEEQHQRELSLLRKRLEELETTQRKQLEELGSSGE
UniProt A8MTT3: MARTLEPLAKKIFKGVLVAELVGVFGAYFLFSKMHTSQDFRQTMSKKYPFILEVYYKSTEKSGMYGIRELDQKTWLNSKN
UniProt Q8TCZ2: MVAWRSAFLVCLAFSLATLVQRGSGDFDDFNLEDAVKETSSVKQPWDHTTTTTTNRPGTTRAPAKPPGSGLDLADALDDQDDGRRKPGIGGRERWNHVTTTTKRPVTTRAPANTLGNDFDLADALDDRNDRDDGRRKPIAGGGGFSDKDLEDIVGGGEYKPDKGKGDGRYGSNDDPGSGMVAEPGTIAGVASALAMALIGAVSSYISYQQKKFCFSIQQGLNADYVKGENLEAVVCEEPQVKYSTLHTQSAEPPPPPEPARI

The targets below were run with C1=CC=C(C=C1)C2=NC(=C(N2)C3=CC=NC=C3)C4=CC(=C(C=C4)Cl)O (assay: log2 fold change, soluble protein after heating vs DMSO (PISA); higher = thermal stabilisation; K562 lysate, 10 uM; active = over 0.2 and 3.5 SD of the protein, either way, in both replicates (recomputed)).
How it was run: (§1)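 To prepare the extract, K562 pellets were dounce-homogenised in PBS pH 7.4 with 1 mM MgCl2, giving crude material at 1 mg/mL protein. This was treated with 10 μM compound for 30 min, then heated in aliquots for 3 min over 48°C-58°C before pooling and addition of NP-40 to 0.5% at 4°C. Centrifugation at 21,000xg for 90 min left soluble protein in the supernatant, which TMTpro 16plex LC-MS/MS quantified with equalised channel sums. Results are log-two fold changes in thermal stability compared with solvent controls, from duplicates.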

Target | log2 fold change
CDR2 (UniProt Q01850) | inactive: 0.053
CDSN (UniProt Q15517) | inactive: -0.081
CDYL (UniProt Q9Y232) | inactive: 0.01
CDK5 (UniProt Q00535) | inactive: 0.01
CEP120 (UniProt Q8N960) | inactive: -0.007
CFAP97 (UniProt Q9P2B7) | inactive: 0.025
CELF2 isoform 3 (UniProt O95319) | inactive: 0.007
CFL1 (UniProt P23528) | inactive: -0.009
CEBPB (UniProt P17676) | inactive: 0.019
CDCA5 (UniProt Q96FF9) | inactive: 0.016
CFAP47 (UniProt Q6ZTR5) | inactive: 0.078
CDC42BPB (UniProt Q9Y5S2) | inactive: 0.013
CEP250 (UniProt Q9BV73) | inactive: 0.024
CDK2 (UniProt P24941) | inactive: 0.008
CDCA2 (UniProt Q69YH5) | inactive: -0.044

Each target was assayed with C1=CC=C2C(=C1)C3=NNC4=CC=CC(=C43)C2=O in the same assay as above.
How it was run: as §1

Target | log2 fold change
CDC40 (UniProt O60508) | inactive: -0.059
CEP41 (UniProt Q9BYV8) | inactive: 0.019
CENPP (UniProt Q6IPU0) | inactive: 0.025
CDK8 (UniProt P49336) | inactive: 0.128
CDC42BPA isoform 6 (UniProt Q5VT25) | inactive: -0.09
CD99 (UniProt P14209) | inactive: -0.113
CDK2AP2 (UniProt O75956) | inactive: 0.078
CFAP410 (UniProt O43822) | inactive: 0.006
CDK4 (UniProt P11802) | inactive: 0.068
CDKN1C (UniProt P49918) | active: -0.461
CDCA8 (UniProt Q53HL2) | inactive: -0.246
CENPJ (UniProt Q9HC77) | inactive: 0.035
CEP83 (UniProt Q9Y592) | inactive: -0.201
CDC42EP4 (UniProt Q9H3Q1) | inactive: 0.044
CEBPZOS (UniProt A8MTT3) | inactive: 0.006
CEP85 isoform 2 (UniProt Q6P2H3) | inactive: 0.011
CEP192 (UniProt Q8TEP8) | inactive: 0.013
CDR2L (UniProt Q86X02) | inactive: -0.066
CD82 (UniProt P27701) | inactive: -0.097

Target | log2 fold change
CDC7 (UniProt O00311) | inactive: -0.027
CDC37 (UniProt K7EKQ2) | inactive: -0.124
CDR2 (UniProt Q01850) | inactive: -0.051
CDSN (UniProt Q15517) | inactive: 0.018
CDYL (UniProt Q9Y232) | inactive: -0.01
CEP120 (UniProt Q8N960) | inactive: -0.142
CFAP97 (UniProt Q9P2B7) | inactive: -0.455
CEP85L isoform 4 (UniProt Q5SZL2) | inactive: 0.184
CELF2 isoform 3 (UniProt O95319) | inactive: -0.012
CD99L2 isoform 5 (UniProt Q8TCZ2) | inactive: -0.197
CFL1 (UniProt P23528) | inactive: 0.063
CEBPB (UniProt P17676) | inactive: -0.002
CDCA5 (UniProt Q96FF9) | inactive: -0.16
CFAP47 (UniProt Q6ZTR5) | inactive: -0.183
CDC42BPB (UniProt Q9Y5S2) | inactive: -0.005
CEP250 (UniProt Q9BV73) | inactive: 0.007
CDK2 (UniProt P24941) | inactive: 0.237
CDCA2 (UniProt Q69YH5) | inactive: -0.146
